These are yes or no findings as the source states them, for the method shown. In cells and extracts the contact can be indirect. Some entries that bind do so weakly or less than the wild type. Where a sequence is shown, tags or fusion partners need not be part of it.
Columns and labels:
Assay in all cases: co-IP
GFP-ARS2 = molecular target: T1, GFP-ARS2 (UniProt Q9BXP5)
T1 sequence: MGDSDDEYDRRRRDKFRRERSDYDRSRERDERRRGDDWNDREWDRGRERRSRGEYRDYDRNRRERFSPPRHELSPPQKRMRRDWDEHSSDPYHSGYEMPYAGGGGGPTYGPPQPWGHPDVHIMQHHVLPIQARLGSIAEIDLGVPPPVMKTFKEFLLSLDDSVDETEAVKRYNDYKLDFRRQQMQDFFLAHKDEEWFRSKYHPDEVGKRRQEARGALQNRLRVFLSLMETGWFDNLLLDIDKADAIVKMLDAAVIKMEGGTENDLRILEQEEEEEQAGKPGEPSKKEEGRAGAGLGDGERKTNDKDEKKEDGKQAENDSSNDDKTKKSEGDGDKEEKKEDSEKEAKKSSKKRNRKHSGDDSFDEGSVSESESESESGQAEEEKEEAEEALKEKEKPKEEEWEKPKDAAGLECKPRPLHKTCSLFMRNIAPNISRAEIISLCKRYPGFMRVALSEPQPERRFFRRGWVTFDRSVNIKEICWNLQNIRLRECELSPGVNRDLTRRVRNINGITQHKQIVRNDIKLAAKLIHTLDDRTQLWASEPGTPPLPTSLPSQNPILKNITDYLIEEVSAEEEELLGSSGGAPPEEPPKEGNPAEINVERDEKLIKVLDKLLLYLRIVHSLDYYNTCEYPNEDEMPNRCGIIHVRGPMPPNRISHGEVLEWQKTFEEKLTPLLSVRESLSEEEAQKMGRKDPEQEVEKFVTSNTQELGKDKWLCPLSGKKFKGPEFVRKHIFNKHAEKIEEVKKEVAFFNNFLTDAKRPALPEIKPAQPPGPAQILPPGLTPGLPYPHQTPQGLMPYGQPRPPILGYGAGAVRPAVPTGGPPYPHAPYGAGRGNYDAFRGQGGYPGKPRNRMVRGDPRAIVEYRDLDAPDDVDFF

[1] = molecular target: T2, MYC-tagged ZC3H18^WT (human) (UniProt Q86VM9)
T2 sequence: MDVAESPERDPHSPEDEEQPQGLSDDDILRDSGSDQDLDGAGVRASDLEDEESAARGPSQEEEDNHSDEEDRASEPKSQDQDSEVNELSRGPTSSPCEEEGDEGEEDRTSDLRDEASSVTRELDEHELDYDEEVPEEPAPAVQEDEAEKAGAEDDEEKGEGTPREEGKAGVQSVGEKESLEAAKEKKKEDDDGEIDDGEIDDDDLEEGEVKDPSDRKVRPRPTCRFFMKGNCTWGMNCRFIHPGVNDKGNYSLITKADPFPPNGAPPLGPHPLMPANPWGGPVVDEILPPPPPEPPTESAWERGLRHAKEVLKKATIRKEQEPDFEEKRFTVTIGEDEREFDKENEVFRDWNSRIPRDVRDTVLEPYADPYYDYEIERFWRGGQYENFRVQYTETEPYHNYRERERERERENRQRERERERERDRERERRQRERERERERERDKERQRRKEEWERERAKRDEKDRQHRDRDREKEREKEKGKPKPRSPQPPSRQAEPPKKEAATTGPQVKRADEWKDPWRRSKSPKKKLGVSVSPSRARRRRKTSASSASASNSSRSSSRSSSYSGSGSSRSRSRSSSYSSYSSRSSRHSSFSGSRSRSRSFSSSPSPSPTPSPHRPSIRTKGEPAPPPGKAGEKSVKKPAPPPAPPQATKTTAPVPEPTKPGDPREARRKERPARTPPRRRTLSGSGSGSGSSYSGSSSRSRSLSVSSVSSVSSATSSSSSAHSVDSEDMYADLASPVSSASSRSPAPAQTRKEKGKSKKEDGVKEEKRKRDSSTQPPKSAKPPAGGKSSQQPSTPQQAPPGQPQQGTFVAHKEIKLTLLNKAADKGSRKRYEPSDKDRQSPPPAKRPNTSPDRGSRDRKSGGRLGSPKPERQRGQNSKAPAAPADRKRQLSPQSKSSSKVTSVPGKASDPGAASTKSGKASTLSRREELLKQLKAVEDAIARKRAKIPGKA

[2] = molecular target: T3, MYC-tagged ZFC3H1 N-terminal variant Z1^1-209(WT) (human) (UniProt O60293)
T3 sequence: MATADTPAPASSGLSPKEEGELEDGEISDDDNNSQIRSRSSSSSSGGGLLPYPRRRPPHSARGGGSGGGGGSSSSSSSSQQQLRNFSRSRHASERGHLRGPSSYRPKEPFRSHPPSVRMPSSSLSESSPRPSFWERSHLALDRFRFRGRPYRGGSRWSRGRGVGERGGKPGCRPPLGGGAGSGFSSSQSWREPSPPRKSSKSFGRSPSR

[3] = molecular target: T4, MYC-tagged ZC3H18^WT (human), Q86VM9; conditions: remark: other sources report otherwise
T4 chain: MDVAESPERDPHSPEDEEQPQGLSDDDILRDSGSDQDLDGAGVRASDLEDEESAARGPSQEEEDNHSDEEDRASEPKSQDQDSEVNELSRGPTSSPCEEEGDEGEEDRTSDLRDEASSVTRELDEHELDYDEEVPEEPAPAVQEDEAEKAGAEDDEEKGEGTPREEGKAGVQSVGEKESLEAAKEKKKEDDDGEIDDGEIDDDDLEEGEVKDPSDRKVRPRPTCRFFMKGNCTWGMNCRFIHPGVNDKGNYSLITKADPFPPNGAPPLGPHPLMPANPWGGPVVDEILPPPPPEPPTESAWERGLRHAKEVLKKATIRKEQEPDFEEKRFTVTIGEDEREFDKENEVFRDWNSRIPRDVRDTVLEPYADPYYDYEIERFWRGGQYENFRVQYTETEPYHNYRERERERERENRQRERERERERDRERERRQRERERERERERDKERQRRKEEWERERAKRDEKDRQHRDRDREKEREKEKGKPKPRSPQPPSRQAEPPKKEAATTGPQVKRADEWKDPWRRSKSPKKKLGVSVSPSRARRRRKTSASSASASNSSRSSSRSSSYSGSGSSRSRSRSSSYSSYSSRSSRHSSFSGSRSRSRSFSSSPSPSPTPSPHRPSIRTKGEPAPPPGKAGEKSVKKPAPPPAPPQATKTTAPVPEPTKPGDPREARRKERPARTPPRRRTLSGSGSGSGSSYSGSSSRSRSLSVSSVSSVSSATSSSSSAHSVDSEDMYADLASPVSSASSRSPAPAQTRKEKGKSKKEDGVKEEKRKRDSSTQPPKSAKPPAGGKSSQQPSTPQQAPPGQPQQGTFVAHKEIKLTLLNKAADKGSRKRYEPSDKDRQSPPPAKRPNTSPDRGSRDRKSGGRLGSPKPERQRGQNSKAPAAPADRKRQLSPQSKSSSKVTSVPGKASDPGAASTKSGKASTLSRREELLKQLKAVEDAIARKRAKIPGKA

“ZFC3H1 (endogenous) (from UniProt O60293 1-1989)” was tested, and the binding (GFP-ARS2) was “binds”.

B1: ZCCHC8 (endogenous) (protein, UniProt Q6NZY4 1-707)
chain: MAAEVYFGDLELFEPFDHPEESIPKPVHTRFKDDDGDEEDENGVGDAELRERLRQCEETIEQLRAENQELKRKLNILTRPSGILVNDTKLDGPILQILFMNNAISKQYHQEIEEFVSNLVKRFEEQQKNDVEKTSFNLLPQPSSIVLEEDHKVEESCAIKNNKEAFSVVGSVLYFTNFCLDKLGQPLLNENPQLSEGWEIPKYHQVFSHIVSLEGQEIQVKAKRPKPHCFNCGSEEHQMKDCPMPRNAARISEKRKEYMDACGEANNQNFQQRYHAEEVEERFGRFKPGVISEELQDALGVTDKSLPPFIYRMRQLGYPPGWLKEAELENSGLALYDGKDGTDGETEVGEIQQNKSVTYDLSKLVNYPGFNISTPRGIPDEWRIFGSIPMQACQQKDVFANYLTSNFQAPGVKSGNKRSSSHSSPGSPKKQKNESNSAGSPADMELDSDMEVPHGSQSSESFQFQPPLPPDTPPLPRGTPPPVFTPPLPKGTPPLTPSDSPQTRTASGAVDEDALTLEELEEQQRRIWAALEQAESVNSDSDVPVDTPLTGNSVASSPCPNELDLPVPEGKTSEKQTLDEPEVPEIFTKKSEAGHASSPDSEVTSLCQKEKAELAPVNTEGALLDNGSVVPNCDISNGGSQKLFPADTSPSTATKIHSPIPDMSKFATGITPFEFENMAESTGMYLRIRSLLKNSPRNQQKNKKASE
For B1, the binding [1] was “binds”.

B2: ARS2 (endogenous) (protein, UniProt Q9BXP5 1-876)
chain: MGDSDDEYDRRRRDKFRRERSDYDRSRERDERRRGDDWNDREWDRGRERRSRGEYRDYDRNRRERFSPPRHELSPPQKRMRRDWDEHSSDPYHSGYEMPYAGGGGGPTYGPPQPWGHPDVHIMQHHVLPIQARLGSIAEIDLGVPPPVMKTFKEFLLSLDDSVDETEAVKRYNDYKLDFRRQQMQDFFLAHKDEEWFRSKYHPDEVGKRRQEARGALQNRLRVFLSLMETGWFDNLLLDIDKADAIVKMLDAAVIKMEGGTENDLRILEQEEEEEQAGKPGEPSKKEEGRAGAGLGDGERKTNDKDEKKEDGKQAENDSSNDDKTKKSEGDGDKEEKKEDSEKEAKKSSKKRNRKHSGDDSFDEGSVSESESESESGQAEEEKEEAEEALKEKEKPKEEEWEKPKDAAGLECKPRPLHKTCSLFMRNIAPNISRAEIISLCKRYPGFMRVALSEPQPERRFFRRGWVTFDRSVNIKEICWNLQNIRLRECELSPGVNRDLTRRVRNINGITQHKQIVRNDIKLAAKLIHTLDDRTQLWASEPGTPPLPTSLPSQNPILKNITDYLIEEVSAEEEELLGSSGGAPPEEPPKEGNPAEINVERDEKLIKVLDKLLLYLRIVHSLDYYNTCEYPNEDEMPNRCGIIHVRGPMPPNRISHGEVLEWQKTFEEKLTPLLSVRESLSEEEAQKMGRKDPEQEVEKFVTSNTQELGKDKWLCPLSGKKFKGPEFVRKHIFNKHAEKIEEVKKEVAFFNNFLTDAKRPALPEIKPAQPPGPAQILPPGLTPGLPYPHQTPQGLMPYGQPRPPILGYGAGAVRPAVPTGGPPYPHAPYGAGRGNYDAFRGQGGYPGKPRNRMVRGDPRAIVEYRDLDAPDDVDFF
B2 was tested, and the binding [2] was “binds” and the binding [1] was “binds”.

B3: NCBP2 (endogenous), P52298 1-156 (protein)
chain: MSGGLLKALRSDSYVELSQYRDQHFRGDNEEQEKLLKKSCTLYVGNLSFYTTEEQIYELFSKSGDIKKIIMGLDKMKKTACGFCFVEYYSRADAENAMRYINGTRLDDRIIRTDWDAGFKEGRQYGRGRSGGQVRDEYRQDYDAGRGGYGKLAQNQ
With B3 the binding [3] was “binds”.

From article doi:10.1101/2023.05.09.539743 (bioRxiv, 2023)
